Assay results: doi:10.1101/2020.01.08.898304 (bioRxiv, 2020)
Where two headings read alike, the source gives them in different places. Results are given in words; binding and its absence hold for the method and conditions named. For some assays here: Binding seen in cells or lysates may run through a third protein. Some entries that bind do so weakly or less than the wild type. For some assays here: Where a sequence is shown, tags or fusion partners need not be part of it.

By UniProt entry, the sequences of proteins in these tests, tags left out. Where a name states a change or a piece, a line headed by the entry shows the natural chain unless it says otherwise. Chains listed by the source or under a name are the forms on record and can include a tag or linker. Residues count along the entry.
KID (102-165 aa) domain of CREB, His-SUMO-tagged (P15337, residues 88-151): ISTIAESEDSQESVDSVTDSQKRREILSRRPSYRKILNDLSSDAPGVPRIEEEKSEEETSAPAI
CREB-GFP (P15337-1, form named): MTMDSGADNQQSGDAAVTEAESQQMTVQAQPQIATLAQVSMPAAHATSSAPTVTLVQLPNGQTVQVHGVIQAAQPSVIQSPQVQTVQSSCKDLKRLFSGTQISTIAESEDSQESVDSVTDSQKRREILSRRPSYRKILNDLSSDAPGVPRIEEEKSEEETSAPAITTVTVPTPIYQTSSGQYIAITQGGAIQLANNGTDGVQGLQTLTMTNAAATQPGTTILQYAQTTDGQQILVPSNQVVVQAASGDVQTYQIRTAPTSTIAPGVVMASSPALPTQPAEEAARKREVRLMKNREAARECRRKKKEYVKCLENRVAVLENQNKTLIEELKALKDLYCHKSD

Legend:
Jacob-1-228-GFP [1] = target: T1, Jacob-1-228-GFP (UniProt Q9EPI6); assay: FRET or BRET
T1 sequence: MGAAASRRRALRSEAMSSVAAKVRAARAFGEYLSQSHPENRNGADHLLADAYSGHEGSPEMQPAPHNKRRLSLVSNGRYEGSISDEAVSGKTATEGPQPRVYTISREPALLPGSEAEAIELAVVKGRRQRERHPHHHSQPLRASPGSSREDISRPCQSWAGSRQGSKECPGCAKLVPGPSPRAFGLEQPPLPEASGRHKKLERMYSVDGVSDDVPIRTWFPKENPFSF

Jacob-262-532-GFP = target: T2, Jacob-262-532-GFP (UniProt Q9EPI6); assay: FRET or BRET
T2 sequence: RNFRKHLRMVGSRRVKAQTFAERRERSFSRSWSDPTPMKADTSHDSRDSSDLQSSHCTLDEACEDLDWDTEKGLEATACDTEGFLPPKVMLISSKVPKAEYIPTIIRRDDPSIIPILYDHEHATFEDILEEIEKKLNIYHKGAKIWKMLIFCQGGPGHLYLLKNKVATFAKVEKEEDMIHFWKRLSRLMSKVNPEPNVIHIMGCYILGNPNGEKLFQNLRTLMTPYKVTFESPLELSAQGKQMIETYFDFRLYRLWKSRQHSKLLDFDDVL

Jacob-GFP = target: T3, Jacob-GFP (UniProt Q9EPI6); assay: FRET or BRET
T3 sequence: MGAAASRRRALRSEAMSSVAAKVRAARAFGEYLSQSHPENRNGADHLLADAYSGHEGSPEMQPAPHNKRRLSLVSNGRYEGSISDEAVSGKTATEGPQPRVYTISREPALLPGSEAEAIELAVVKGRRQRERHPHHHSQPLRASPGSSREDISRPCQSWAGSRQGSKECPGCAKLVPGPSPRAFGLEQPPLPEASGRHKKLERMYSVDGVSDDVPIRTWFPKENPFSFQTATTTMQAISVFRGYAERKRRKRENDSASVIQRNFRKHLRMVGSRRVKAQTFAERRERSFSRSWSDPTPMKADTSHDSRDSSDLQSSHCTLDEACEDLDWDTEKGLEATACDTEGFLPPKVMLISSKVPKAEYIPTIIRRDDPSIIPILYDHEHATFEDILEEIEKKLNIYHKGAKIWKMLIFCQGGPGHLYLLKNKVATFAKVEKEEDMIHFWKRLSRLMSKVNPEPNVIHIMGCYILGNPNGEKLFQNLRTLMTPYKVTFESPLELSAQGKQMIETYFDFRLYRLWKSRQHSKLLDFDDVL

LMO4-GFP = target: T4, LMO4-GFP (UniProt P61968); assay: FRET or BRET
T4 sequence: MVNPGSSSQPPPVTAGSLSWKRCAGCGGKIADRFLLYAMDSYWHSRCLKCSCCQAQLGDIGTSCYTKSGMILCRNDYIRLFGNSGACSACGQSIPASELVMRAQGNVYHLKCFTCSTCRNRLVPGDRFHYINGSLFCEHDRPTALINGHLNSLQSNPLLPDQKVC

[2] = target: T5, N-terminus of Jacob (117-172 aa), pull-down fragment (UniProt Q9EPI6); assay: pull-down
T5 sequence: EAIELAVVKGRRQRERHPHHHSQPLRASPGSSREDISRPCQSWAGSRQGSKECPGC

CREB-GFP = CREB-GFP (UniProt P15337); assay: FRET or BRET
Jacob-1-228-GFP [3] = target: T1, Jacob-1-228-GFP; assay: FRET or BRET; remark: listed apart in the source
Jacob-1-246-GFP = target: T6, Jacob-1-246-GFP (UniProt Q9EPI6); assay: co-IP
T6 sequence: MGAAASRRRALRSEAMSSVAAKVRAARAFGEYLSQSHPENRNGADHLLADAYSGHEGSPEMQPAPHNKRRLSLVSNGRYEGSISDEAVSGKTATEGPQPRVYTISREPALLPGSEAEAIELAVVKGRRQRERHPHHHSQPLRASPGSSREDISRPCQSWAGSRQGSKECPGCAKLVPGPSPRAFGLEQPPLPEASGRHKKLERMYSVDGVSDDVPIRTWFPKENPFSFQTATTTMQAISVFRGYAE

Jacob-173-246-GFP = target: T7, Jacob-173-246-GFP (UniProt Q9EPI6); assay: co-IP
T7 sequence: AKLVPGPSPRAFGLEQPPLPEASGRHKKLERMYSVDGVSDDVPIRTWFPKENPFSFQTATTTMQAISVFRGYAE

Jacob-247-532-GFP = target: T8, Jacob-247-532-GFP (UniProt Q9EPI6); assay: co-IP
T8 sequence: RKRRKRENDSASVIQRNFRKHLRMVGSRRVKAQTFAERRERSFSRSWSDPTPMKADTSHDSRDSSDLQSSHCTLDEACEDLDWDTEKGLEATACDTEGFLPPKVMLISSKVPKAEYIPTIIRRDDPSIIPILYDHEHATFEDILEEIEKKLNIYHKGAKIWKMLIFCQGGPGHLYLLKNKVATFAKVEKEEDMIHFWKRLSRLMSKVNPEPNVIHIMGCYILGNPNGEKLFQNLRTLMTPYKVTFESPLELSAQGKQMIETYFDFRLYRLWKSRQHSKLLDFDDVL

Jacob-45-172-GFP = target: T9, Jacob-45-172-GFP (UniProt Q9EPI6); assay: co-IP
T9 sequence: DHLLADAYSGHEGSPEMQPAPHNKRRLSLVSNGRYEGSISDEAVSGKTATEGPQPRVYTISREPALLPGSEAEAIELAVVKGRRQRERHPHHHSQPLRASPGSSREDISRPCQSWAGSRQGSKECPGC

CREB-tagRFP (from UniProt P15337-1 1-341)
binding (Jacob-1-228-GFP [1]): binds
binding (Jacob-262-532-GFP): binds
binding (Jacob-GFP): binds
binding (LMO4-GFP): binds

KID (102-165 aa) domain of CREB, His-SUMO-tagged (from UniProt P15337-1 102-165) (domain or fragment)
binding [2]: no binding

B1: LIM1-1-80-tagRFP (domain or fragment, UniProt P61968 1-80)
chain: MVNPGSSSQPPPVTAGSLSWKRCAGCGGKIADRFLLYAMDSYWHSRCLKCSCCQAQLGDIGTSCYTKSGMILCRNDYIRL
binding (CREB-GFP): binds
binding (Jacob-1-228-GFP [3]): binds
binding (Jacob-1-246-GFP): binds
binding (Jacob-173-246-GFP): binds
binding (Jacob-247-532-GFP): no binding
binding (Jacob-45-172-GFP): no binding
